Data from patent US6727285B1, “Use of D-arginine and/or L-arginine to protect the amino groups of biological substances from damage, inactivation, or modification by toxic carbonyls and/or dicarbonyls” (priority 1995, dated 2004).

System: bovine serum albumin
Assay: Blocking of methylglyoxal or glyoxal cross-linking (gel formation) of albumin, inventor's tests
Type: biochemical
Details: arginines: hydrochloride salts and free base forms

For `NCCC[C@H](N)C(=O)O` [ornithine, reference compound], the “blocking of the cross-linking of albumin by methylglyoxal or glyoxal” value was “do not block”.
